# In the supplement of paper PMC5949888:
# Most values lie at the floor of the assay. Slopes are relative: functional sequences can read slightly below zero.
# Tested on: Saccharomyces cerevisiae PS128 hsf1 delta, HSF1(1-493) fusion
# Assay: growth estimate (transactivation domain function in HSF1 fusion, heat-shock survival) (a.u. (slope of normalised read count over time)); higher = stronger growth at 37°C, i.e. more transactivation activity
# Conditions: library: random library
row,Substance,growth estimate
1,CGTSPSYTCVKAA,0.0891
2,FQVRVSIPL,< -0.25
3,NEYDRRTSITHTWRVPPLVI,< -0.25
4,QREWGIGDPLVRA,< -0.25
5,SPLFEGTGILVDFAGPATRL,< -0.25
6,VVCGPSV,< -0.25
7,CHHSRSP,< -0.25
8,VLGAR,< -0.25
9,GSSRLRNGLLSNSP,< -0.25
10,FTTVRRVRSVESEDC,< -0.25
11,GNLRAEMRRHAGGREEVTGR,< -0.25
12,NSVVINVN,< -0.25
13,PVGLRTGLRILYSPAWQPAN,< -0.25
14,TMSTCLKREYHMPGGAC,< -0.25
15,VFGLPCPARGTYLRAAS,< -0.25
16,LSSLSGLRAWPVYSAPTSSA,< -0.25
17,RELIG,< -0.25
18,PKGRVNLLQRRCIITVEHAP,< -0.25
19,IYEEGVLATLT,< -0.25
20,LQVEWRFQSDSSGSRYRGCC,< -0.25
21,TVCAMPATSVVEWSVVSAMA,< -0.25
22,TGRANHMFTALNPGELKADS,< -0.25
23,RVFVFPLYV,< -0.25

row,Substance,growth estimate
1,QRHLCSLTCRPVVSFRTPSI,< -0.25
2,GMSRPFPK,< -0.25
3,VETGSSIFNRAGAKCPSLRY,< -0.25
4,WQCTRRG,< -0.25
5,RAWYGWGFSGGVCIPNITRR,< -0.25
6,TSRIWSTGMRPARESVLVLS,< -0.25
7,LAWPPVLTPPSSRDALQPVW,< -0.25
8,LVSTDSATLQGNGVRPAVRL,< -0.25
9,GLVRLMCRHVPVLWGVGNVL,< -0.25
10,QRSRNGRLIREYRR,< -0.25
11,SSTDEYNSEHSGRGIAECVW,< -0.25
12,LRPGPRTNAWFGASNLSERN,< -0.25
13,RIKEVSWVVFESSRSCAAAV,< -0.25
14,QYVNPG,< -0.25
15,QFRQRLRQCTTAACRIG,< -0.25
16,LTSHSIRQVDLVRVLTRSPR,< -0.25
17,AITGKYPLRKHP,< -0.25
18,ARRRVLWRAAELKWCAFAFV,< -0.25
19,KSSRA,< -0.25
20,YDTHVGVPPRAASCCDIEAL,< -0.25
21,ARCVCYGTVPWSWFFLELTV,< -0.25
22,SRDSGRGGRHHGL,< -0.25
23,TVWEATYALD,< -0.25

row,Substance,growth estimate
1,IWDGAWVRGDPHNYQAISGI,< -0.25
2,PRVSMFNQVYITRRNYHSAG,< -0.25
3,LYCRAPHMTT,< -0.25
4,KYVGVGGPGEETADSGVRFF,-0.243
5,RVGCMTLGAHSQFGILIDGI,-0.246
6,KAGILGDRRPYAGLNSIVPL,< -0.25
7,RVGIQAVSP,< -0.25
8,SGYWSFGEG,-0.231
9,LGLSITIRIIRSGP,-0.223
10,AGSGN,< -0.25
11,FMIPNSNSGLTRFT,< -0.25
12,VSGLVWKAGCSRGDSRMLDV,< -0.25
13,FLQPCERAL,< -0.25
14,TFHLLLLSS,< -0.25
15,SQRLLLRS,< -0.25
16,TLAGPSQGLEYITSLSLEWR,< -0.25
17,GWSTQNYNHLEV,< -0.25
18,CHRYGVCTPRCNSLVTVCRT,< -0.25
19,TLHVERHIAGSHNITGLDRA,-0.198
20,RNGGIQIWNSSSRAIPAGLR,< -0.25
21,GHCGGLVYSYVCSCIGGIRE,< -0.25
22,ARGSPSVR,< -0.25
23,MAF,< -0.25

row,Substance,growth estimate
1,TTLTVWTLCHSKGPAPAASP,< -0.25
2,RYRPRSCRILFYVRQCTYPR,< -0.25
3,THDERSFILRSIRGRTLRAP,< -0.25
4,YKLALSLTL,< -0.25
5,LTM,-0.247
6,SWVYKKRAI,< -0.25
7,LLVFCTRLERVPHWIPI,< -0.25
8,VGFFAQKKCLEIIHYSAFWV,< -0.25
9,TGIGDEPTMGLLPYPWAYMD,< -0.25
10,ILAVDDC,< -0.25
11,ATDKAY,< -0.25
12,SLGDRSGVFEDVHRLRSRNG,-0.243
13,AGTQPRMPSPAEMDCIWPGF,< -0.25
14,GEIYDPTG,< -0.25
15,TDRPRVVRRCGTIFLDGLMP,< -0.25
16,RMDMGPRLSGLRVLVHFLLR,< -0.25
17,TVAAGM,< -0.25
18,SRRFRPTLRGLHVSHKK,< -0.25
19,SCQARIWRILNQSEPCKSAS,< -0.25
20,PRTGLLFPRMSVSVGLTGWA,< -0.25
21,DRGPMGQIAGDLGPQMTTQP,< -0.25
22,RPEIRPGHCAG,< -0.25
23,PTDPRFADGTFTTIVPRGKP,-0.243

row,Substance,growth estimate
1,DTSSYTGHLEVCAFYSVQRS,< -0.25
2,TKQRQNA,< -0.25
3,GKKEFEA,< -0.25
4,MVWHVVVLDTHEHLASSDIS,< -0.25
5,RRRTQYITVRVPVQMLDALQ,< -0.25
6,RDYKAAVDPEGPLGAWSVLL,< -0.25
7,TFRWFPEGVQPLWNVSSRSL,< -0.25
8,PNMTVTVVPMAGD,< -0.25
9,GSLEMRFL,< -0.25
10,RDSEMPLGAAPVSEGRLTGH,< -0.25
11,RTTRRQPRSRTCRLIEYFLW,< -0.25
12,VKDSGQCYANHGQLICRRDP,< -0.25
13,TVDHANVNASRCVSRASLMC,< -0.25
14,RISGFEKEGHTQCHEPHGRS,< -0.25
15,IIGGLAARDTCPRV,< -0.25
16,RGCVVYR,< -0.25
17,STGSPGQASHTEGEQRGYRL,< -0.25
18,VLGGTAAMGPRRGRA,< -0.25
19,PRCAYDRRSYLSRYGRE,< -0.25
20,RCFVFTMCHGGNRTLWMCAD,< -0.25
21,EYTTCRAVCRDET,< -0.25
22,RLPIS,< -0.25
23,KWHGWILRTSDGPC,< -0.25

# Look-ups from the list:
# Under growth estimate, RGCVVYR has the entry < -0.25
# Under growth estimate, FTTVRRVRSVESEDC has the entry < -0.25
# Under growth estimate, LAWPPVLTPPSSRDALQPVW has the entry < -0.25
# Under growth estimate, VFGLPCPARGTYLRAAS has the entry < -0.25
# Under growth estimate, RTTRRQPRSRTCRLIEYFLW has the entry < -0.25

# Going on with the list:

row,Substance,growth estimate
1,KRENVRRSYERA,< -0.25
2,RSLGCHLVYIYSRKVCSGIV,< -0.25
3,VNNTILHPTVSI,< -0.25
4,YRMKCHGRDLHHSSY,< -0.25
5,PDPGYSSEVKPAVYG,< -0.25
6,RGVRRTCTFSCDQRRYLFRW,< -0.25
7,PSKDKVFPVYWFIGLV,< -0.25
8,VSHT,< -0.25
9,CLLPTRCLYEHRIQDGICLI,< -0.25
10,WTGWDSVHSVPLVRRRWAWK,< -0.25
11,KRR,< -0.25
12,RMSAPP,< -0.25
13,SVARVPIHLIPDRYKDDLAG,< -0.25
14,LSLVCKSFSTRGI,< -0.25
15,TRGP,< -0.25
16,NESHRPPWM,< -0.25
17,CVVNLFTVVRAGFGMPGLGL,< -0.25
18,CLFVGMSTALGLLFASEHA,< -0.25
19,SHKGRLLRNASARSVPISD,-0.231
20,CMGGYR,< -0.25
21,TDTGREAVIRKELIPCNMNL,< -0.25
22,ANRQPQLRD,< -0.25
23,GIHRRSAQWIFLL,< -0.25

# A different layout for part of the listing above:
row	Substance	growth estimate
12	LRPGPRTNAWFGASNLSERN	< -0.25
12	RMSAPP	< -0.25

# Next part:

row,Substance,growth estimate
1,LNAGPARPYAYLT,< -0.25
2,VPGH,< -0.25
3,SSVHMGL,< -0.25
4,LLSRLSLDSVDQRLQLHLVR,< -0.25
5,GQLK,< -0.25
6,LTTGVTLILSIAGTSNAEPC,< -0.25
7,TVSRPDGGRGSPCLTGYMSV,< -0.25
8,CQPSWTSMRDVIRRARFLPV,< -0.25
9,SSTQKKRLKKFCVQVYGLPV,< -0.25
10,CDSKGPRL,< -0.25
11,TEEVLVRSRSRV,< -0.25
12,TDAESVKILGLRKSSFPGGR,-0.235
13,MGCDIPFHTVLVKRTSVSRV,< -0.25
14,LQVGEPG,< -0.25
15,NMFYGGPEFASWPPEPVEFE,0.0951
16,TDAREI,< -0.25
17,VGPGYVAIAVLNPKVV,< -0.25
18,GKGSSIEKR,< -0.25
19,SALSYPSTSSR,< -0.25
